Literature values, collected in US12728139B2, “Methods of preparing purified atomic quantum clusters” (NANOGAP SUB-NM-POWDER, S.A., priority 2018, dated 2026).
At least one compound was matched to its structure with a doubt left.

Tests used:
[1] = test system: octamer; conditions: cited from earlier work
[2] = test system: DNA; conditions: stopped-flow measurements; cited from earlier work

CC[n+]1c(-c2ccccc2)c2cc(N)ccc2c2ccc(N)cc21 [EB, Ethidium bromide]
Formation constant of complex with octamer ([1]; 25° C., ITC and fluorescence): 190000 M⁻¹
Effect on CD spectra of the octamer ([1]; EB up to 12-fold excess, CEB/CH=12): does not alter the CD spectra of the octamer
Affinity constant of intercalation into DNA [2]: (1.4±0.4)×10^5 M^−1
